PubChem BioAssay AID624291 (National Center for Advancing Translational Sciences (NCATS), 2012)
In all, about 350,000 compounds went through this assay and about 220 (0.063%) were called active. The inconclusive results got no clear call from the source; some entries with a clear call stand among them for comparison. Calls follow the shape of the dose curve; as a rule, active = well fitted activation curve with a large enough effect; inconclusive = small, poorly fitted or top-dose-only effect; inactive = no such curve, though single readings can be large or run the other way. Potencies of inconclusive entries are doubtful fits and often do not repeat.

Assay: qHTS for Activators of Integrin-Mediated Alleviation for Muscular Dystrophy; also: nearly all actives have a fitted effect of over 60% in size;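 as to activation: 100% = response of the positive control SU9516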
Details: alpha7betagal myoblasts, beta-gal FDG fluorescence, 48 h; activation: at 38.3 µM (top of the series)
How it was run: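 Alpha7betagal+/- myoblasts (passage 13) were plated 16-24 hr, then exposed to compounds (1:260 dilution of DMSO stock) for 48 hours at 37C. After MPER lysis, β-galactosidase reporter activity was read as FDG fluorescence (ex 480/em 540) after 30 minutes.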
Potency is read from the fitted curve at half-maximal effect.

**Q.** For `CCc1nnc(NC(=O)c2ccc3c(c2)C(=O)N(C(C)(C)C)C3=O)s1`, which “activation” value is on record?
**A.** The value was inactive: 2.41%.

**Q.** For `Cc1cccc(-n2nnnc2SCC(=O)Nc2ccc(N3CCN(C)CC3)cc2)c1`, which “activation” value is on record?
**A.** Its value is inactive: -17.6%.

**Q.** Which Potency does the source give for `Nc1ncnc(NCc2ccccc2)c1[N+](=O)[O-]` here?
**A.** Its Potency is inconclusive: 11.2 µM [activator, partial curve].

**Q.** For `N#Cc1ccsc1NC(=O)COC(=O)CCS(=O)(=O)c1ccccc1`, which Potency is on record?
**A.** Its Potency is inconclusive: 8.91 µM [activator, partial curve, poor fit].

**Q.** With `CC(C)(C)C(=O)CNS(=O)(=O)c1ccc(S(=O)(=O)NC2CCCC2)cc1` as the compound, how does the Potency read?
**A.** The Potency was inconclusive: 3.16 µM [activator, partial curve, poor fit].

**Q.** Which Potency does the source give for `NC(=S)Nc1cccc(-c2n[nH]c(=S)o2)c1` here?
**A.** The Potency was inconclusive: 5.01 µM [activator, single point].

**Q.** For `C/C(=N\NC(=O)CC1N=C(Cc2ccccc2)NNC1=O)c1ccncc1` (stereo unspecified), which Potency is on record?
**A.** Its Potency is inconclusive: 2.82 µM [activator, partial curve, poor fit].

**Q.** With `CC(=O)C1=C(O)C(=O)N(c2ccc(Br)cc2)C1c1cccc(F)c1` (stereo unspecified) as the compound, how does the Potency read?
**A.** Its Potency is inconclusive: 12.6 µM [activator, single point].

**Q.** For `COc1ccc(/C=N/NC(=O)c2cccc(C(=O)N/N=C/c3ccc(OC)cc3)n2)cc1`, which Potency is on record?
**A.** Its Potency is inconclusive: 22.4 µM [activator, single point].

**Q.** With `CCCn1cnc2c(oc3ccccc32)c1=O` as the compound, how does the Potency read?
**A.** The Potency was inconclusive: 1 µM [activator, partial curve, poor fit].

**Q.** Which Potency does the source give for `COc1ccc([N+](=O)[O-])cc1NC1CCN(C(=O)c2cccs2)CC1` here?
**A.** Its Potency is inconclusive: 5.01 µM [activator, single point].

**Q.** With `COc1ccc(-n2c(C)cc(C3=NNC(=NC4CC4)SC3)c2C)cc1` as the compound, how does the “activation” value read?
**A.** Its value is inactive: -71.7%.

**Q.** Which Potency does the source give for `CC(=O)Nc1ccc(NC(=O)[C@@H](NC(=O)c2ccccc2F)C(C)C)cc1` here?
**A.** The Potency was inconclusive: 11.2 µM [activator, single point].

**Q.** With `Cc1ccc(C(=O)Nc2ccc3cn[nH]c3c2)cc1S(=O)(=O)N1CCOCC1` as the compound, how does the “activation” value read?
**A.** The value was inactive: 4.99%.

**Q.** Which Potency does the source give for `Cc1ccc(Cl)cc1NC(=O)C1CCCN(c2cnccn2)C1` (stereo unspecified) here?
**A.** Its Potency is inconclusive: 0.501 µM [activator, full curve, poor fit].

**Q.** Which Potency does the source give for `Cc1cccc(Oc2ncc(-c3ccc(Cl)cc3)cn2)c1C` here?
**A.** Its Potency is inconclusive: 5.01 µM [activator, single point].

**Q.** For `CCS(=O)(=O)c1nc(S(=O)(=O)c2ccc(C)cc2)c(NCCCN2CCCC2=O)s1`, which Potency is on record?
**A.** The Potency was inconclusive: 2.24 µM [activator, full curve, poor fit].

**Q.** With `COc1ccc(NC(=O)CCC(=O)c2cccs2)cc1Cl` as the compound, how does the Potency read?
**A.** The Potency was inconclusive: 10 µM [activator, partial curve].

**Q.** Which “activation” value does the source give for `Cc1cccc(NS(=O)(=O)c2ccc(C)c(C(=O)NC3CCN(Cc4ccccc4)CC3)c2)c1` here?
**A.** The value was inactive: -55.1%.

**Q.** With `CC1CCN(C(=O)c2ccc(NC3=C(Cl)C(=O)N(Cc4ccccc4)C3=O)cc2)CC1` as the compound, how does the “activation” value read?
**A.** Its value is inactive: -53.1%.

**Q.** With `CCCCN(C)CCn1c(=S)[nH]c2ccc(N3CCOCC3)cc2c1=O` as the compound, how does the activation read?
**A.** Its activation is inactive: 23% [at 7.66 µM].

**Q.** For `COc1ccc(N2CCN(C(=O)c3cc(C)on3)CC2)cc1`, which Potency is on record?
**A.** The Potency was inconclusive: 5.01 µM [activator, full curve].

**Q.** Which Potency does the source give for `N#C/C(=C/C1=C(N2CCOCC2)C(=C/c2ccc(Cl)cc2Cl)/CC1)C(=O)Nc1ccccc1F` here?
**A.** Its Potency is inconclusive: 2.82 µM [activator, full curve, poor fit].

**Q.** Which Potency does the source give for `CC(OC(=O)c1cc(=O)c2ccccc2o1)C(=O)c1ccccc1` (stereo unspecified) here?
**A.** Its Potency is inconclusive: 1 µM [activator, partial curve, poor fit].

**Q.** With `COc1ccc(N=N/C(=C\O)C(=O)c2cccs2)cc1` as the compound, how does the Potency read?
**A.** The Potency was inconclusive: 28.2 µM [activator, single point].

**Q.** With `Cc1ccsc1-c1n[nH]c(=S)n1C1CCCCC1` as the compound, how does the Potency read?
**A.** Its Potency is inconclusive: 2.82 µM [activator, partial curve, poor fit].

**Q.** With `Cc1c(N=Nc2ccc(O)cc2)c(=O)n(-c2ccccc2)n1C` as the compound, how does the “activation” value read?
**A.** The value was inactive: -0.162%.

**Q.** Which “activation” value does the source give for `CCOC(=O)C1(CCc2ccccc2)CCN(C(=O)[C@@H]2C[C@@H](C)NC(=S)N2)CC1` here?
**A.** Its value is inactive: 11.8%.

**Q.** For `CC(C)CC(NC(=O)c1ccc(C#CC(C)(C)O)s1)C(=O)O` (stereo unspecified), which Potency is on record?
**A.** The Potency was inconclusive: 2.82 µM [activator, single point].

**Q.** With `O=C(COC(=O)c1ccccc1Cl)NCc1ccco1` as the compound, how does the activation read?
**A.** The activation was inconclusive: -33.9% [activator].

**Q.** With `COc1cccc(N2CC(C(=O)Nc3ccc(F)cc3)CC2=O)c1` (stereo unspecified) as the compound, how does the Potency read?
**A.** Its Potency is inconclusive: 3.55 µM [activator, single point].

**Q.** Which Potency does the source give for `C/C(=N\Nc1ccc(Cl)c(C(=O)O)c1)c1cccs1` here?
**A.** The Potency was inconclusive: 28.2 µM [activator, single point].

**Q.** For `CC(C)(C)C(=O)NC(=S)Nc1ccccn1`, which “activation” value is on record?
**A.** The value was inactive: -10.6%.

**Q.** With `c1ccc(-c2ccc(OCCOCCn3cncn3)cc2)cc1` as the compound, how does the “activation” value read?
**A.** Its value is inactive: 19.2%.

**Q.** With `CCO/C=C1/C(=O)N(c2ccccc2OC)C(=O)c2ccccc21` as the compound, how does the Potency read?
**A.** The Potency was inconclusive: 5.01 µM [activator, single point].

**Q.** With `COc1ccccc1C(=O)Nc1ccc(Br)c2cccnc12` as the compound, how does the Potency read?
**A.** The Potency was inconclusive: 28.2 µM [activator, single point].

**Q.** For `O=C(O)c1ccccc1CSC1=NCCS1`, which Potency is on record?
**A.** Its Potency is inconclusive: 28.2 µM [activator, single point].

**Q.** Which Potency does the source give for `O=S(=O)(c1ccc(F)c(F)c1F)N1CCN(C(=S)NCc2ccccc2)CC1` here?
**A.** Its Potency is inconclusive: 5.01 µM [activator, single point].

**Q.** Which Potency does the source give for `CCn1c(=S)sc2c(=O)n(CC(=O)Nc3ccccc3C(F)(F)F)c(C)nc21` here?
**A.** The Potency was inconclusive: 10 µM [activator, single point].

**Q.** Which Potency does the source give for `CC(C)c1ccc(NC(=O)COC(=O)c2nn(C)c(=O)c3ccccc23)cc1` here?
**A.** The Potency was inconclusive: 7.94 µM [activator, partial curve, poor fit].

**Q.** With `COc1ccc(S(=O)(=O)c2nnn(-c3ccccc3Cl)c2N)cc1` as the compound, how does the Potency read?
**A.** Its Potency is inconclusive: 0.355 µM [activator, full curve, poor fit].

**Q.** Which “activation” value does the source give for `Clc1ccc(OCCCCCN2CCCC2)c(Br)c1` here?
**A.** Its value is inactive: -66.7%.

**Q.** Which “activation” value does the source give for `Cc1cc(C)c(NC(=O)CNC(=O)c2cc([N+](=O)[O-])ccc2N2CCOCC2)c(C)c1` here?
**A.** Its value is inactive: -7.83%.

**Q.** Which Potency does the source give for `O=C(CN1C(=O)c2ccc(Br)cc2C1=O)NCC1CCCO1` (stereo unspecified) here?
**A.** Its Potency is inconclusive: 4.47 µM [activator, partial curve, poor fit].

**Q.** Which Potency does the source give for `CCC1=C2CC[C@H]3C(=O)N(c4ccccc4)C(=O)[C@H]3[C@H]2[C@@]2(C)C(=NCC3CC3)OC(=O)N2C1=O` here?
**A.** Its Potency is inconclusive: 7.94 µM [activator, partial curve, poor fit].

**Q.** With `CC(=O)Nc1nc(-c2ccc([N+](=O)[O-])cc2)cs1` as the compound, how does the Potency read?
**A.** The Potency was inconclusive: 7.94 µM [activator, partial curve, poor fit].

**Q.** With `COc1cccc(NC(=O)CN(C)CC(=O)Nc2ccc(C)c([N+](=O)[O-])c2)c1` as the compound, how does the Potency read?
**A.** Its Potency is inconclusive: 12.6 µM [activator, single point].

**Q.** Which activation does the source give for `COc1ccc2oc(-c3cccc(NC(=O)CSc4ccc(Cl)cc4)c3)nc2c1` here?
**A.** The activation was inconclusive: -5.37% [activator].

**Q.** For `CN1CCN(CC(=O)N2c3ccccc3C(C)(c3ccc(Cl)cc3)CC2(C)C)CC1` (stereo unspecified), which “activation” value is on record?
**A.** The value was inactive: -42.7%.

**Q.** For `OCC[C@@H]1C[C@H](O)[C@@H](O)[C@]2(OCCc3ccccc32)O1`, which “activation” value is on record?
**A.** Its value is inactive: 31.5%.

**Q.** For `CCc1ccccc1NC(=O)CN1CCN(C(=O)CN2C(=O)NC3(CCCCC3C)C2=O)CC1` (stereo unspecified), which Potency is on record?
**A.** The Potency was inconclusive: 2 µM [activator, partial curve, poor fit].

**Q.** Which Potency does the source give for `Cc1ccc2cc(C3CC(c4ccco4)=NN3S(=O)(=O)c3ccccc3)c(Cl)nc2c1` (stereo unspecified) here?
**A.** Its Potency is inconclusive: 20 µM [activator, single point].

**Q.** With `Cc1ccc(C2(c3ccccc3)NC(=O)N(CC(=O)N(C)C3CCS(=O)(=O)C3)C2=O)cc1C` (stereo unspecified) as the compound, how does the Potency read?
**A.** Its Potency is inconclusive: 5.01 µM [activator, single point].

**Q.** For `O=CNC(n1cnc2c(N3CCOCC3)ncnc21)C(Cl)(Cl)Cl` (stereo unspecified), which Potency is on record?
**A.** The Potency was inconclusive: 2.82 µM [activator, single point].

**Q.** With `COc1cccc(NC(=O)Nc2nnc(N3CCCCC3C)s2)c1` (stereo unspecified) as the compound, how does the Potency read?
**A.** Its Potency is inconclusive: 28.2 µM [activator, single point].

**Q.** With `COc1ccccc1NS(=O)(=O)c1cccc(C(=O)N/N=C/c2ccc(NC(C)=O)cc2)c1` as the compound, how does the Potency read?
**A.** The Potency was inconclusive: 10 µM [activator, partial curve, poor fit].

**Q.** Which “activation” value does the source give for `N#CC(C#N)=c1ccc2c(c1)N1C3=C(CCCC3)CC3CCCCC31N=2` (stereo unspecified) here?
**A.** The value was inactive: -3.16%.

**Q.** With `CS(=O)(=O)N1CCN(Cc2ccc([N+](=O)[O-])cc2)CC1` as the compound, how does the Potency read?
**A.** Its Potency is inconclusive: 0.398 µM [activator, full curve, poor fit].

**Q.** Which Potency does the source give for `Cc1cccc2c1cnn2C(=O)Nc1ccccc1Br` here?
**A.** Its Potency is inconclusive: 2.51 µM [activator, partial curve, poor fit].

**Q.** Which Potency does the source give for `CCCCC(=O)N/N=C/c1ccc(-c2ccc([N+](=O)[O-])cc2)o1` here?
**A.** Its Potency is inconclusive: 28.2 µM [activator, single point].

**Q.** With `COc1ccc(C)cc1NC(=O)NC1CCN(Cc2ccccc2)CC1` as the compound, how does the “activation” value read?
**A.** Its value is inactive: -28.7%.

**Q.** With `O=C1CC(c2ccccc2)CC(=O)C1=CN1CCCC1` (stereo unspecified) as the compound, how does the Potency read?
**A.** Its Potency is inconclusive: 28.2 µM [activator, single point].

**Q.** For `Cc1nc(SCCOc2ccccc2F)[nH]c(=O)c1Cc1ccccc1`, which Potency is on record?
**A.** The Potency was inconclusive: 28.2 µM [activator, single point].

**Q.** With `CCn1c(/C=C2\C(=O)Nc3ccccc32)nc2ccccc2c1=O` as the compound, how does the Potency read?
**A.** Its Potency is inconclusive: 1 µM [activator, full curve, poor fit].

**Q.** With `Cn1cccc1CC(=O)NNC(=S)Nc1ccc(Cl)cc1Cl` as the compound, how does the Potency read?
**A.** Its Potency is inconclusive: 28.2 µM [activator, single point].

**Q.** Which Potency does the source give for `CCOC(=O)NN1C(=O)c2ccccc2NC1c1ccc(OC)cc1OC` (stereo unspecified) here?
**A.** The Potency was inconclusive: 0.355 µM [activator, full curve, poor fit].
